The source of these data is PMC4489720.

These are yes or no findings as the source states them, for the method shown. Binding seen in cells or lysates may run through a third protein. Here binding means that the protein was enriched with, or labelled near, the bait; the list need not be complete. A no says only that the protein was not detected with the bait.

The target in the assay is recombinant, His-tagged DBL domain (DBLβ3_D5) of the PfEMP1 protein PFD1235w (P. falciparum). The experiment in a line: affinity purification with mass spectrometry; FV6 or PFD1235w DBLβ3_D5 (100 μg) coupled to M-270 epoxy Dynabeads; non-heat-inactivated human serum 500 μL, 1 h, 4°C; washed in NaPO4 buffer with 0.05% Tween 20; eluted in citrate pH 3.1; 2D gel, silver stain, MALDI TOF/TOF of spots; only the target purified.

B1: α2-macroglobulin (α2M), native (protein, UniProt P01023 24-1474)
chain: SVSGKPQYMVLVPSLLHTETTEKGCVLLSYLNETVTVSASLESVRGNRSLFTDLEAENDVLHCVAFAVPKSSSNEEVMFLTVQVKGPTQEFKKRTTVMVKNEDSLVFVQTDKSIYKPGQTVKFRVVSMDENFHPLNELIPLVYIQDPKGNRIAQWQSFQLEGGLKQFSFPLSSEPFQGSYKVVVQKKSGGRTEHPFTVEEFVLPKFEVQVTVPKIITILEEEMNVSVCGLYTYGKPVPGHVTVSICRKYSDASDCHGEDSQAFCEKFSGQLNSHGCFYQQVKTKVFQLKRKEYEMKLHTEAQIQEEGTVVELTGRQSSEITRTITKLSFVKVDSHFRQGIPFFGQVRLVDGKGVPIPNKVIFIRGNEANYYSNATTDEHGLVQFSINTTNVMGTSLTVRVNYKDRSPCYGYQWVSEEHEEAHHTAYLVFSPSKSFVHLEPMSHELPCGHTQTVQAHYILNGGTLLGLKKLSFYYLIMAKGGIVRTGTHGLLVKQEDMKGHFSISIPVKSDIAPVARLLIYAVLPTGDVIGDSAKYDVENCLANKVDLSFSPSQSLPASHAHLRVTAAPQSVCALRAVDQSVLLMKPDAELSASSVYNLLPEKDLTGFPGPLNDQDNEDCINRHNVYINGITYTPVSSTNEKDMYSFLEDMGLKAFTNSKIRKPKMCPQLQQYEMHGPEGLRVGFYESDVMGRGHARLVHVEEPHTETVRKYFPETWIWDLVVVNSAGVAEVGVTVPDTITEWKAGAFCLSEDAGLGISSTASLRAFQPFFVELTMPYSVIRGEAFTLKATVLNYLPKCIRVSVQLEASPAFLAVPVEKEQAPHCICANGRQTVSWAVTPKSLGNVNFTVSAEALESQELCGTEVPSVPEHGRKDTVIKPLLVEPEGLEKETTFNSLLCPSGGEVSEELSLKLPPNVVEESARASVSVLGDILGSAMQNTQNLLQMPYGCGEQNMVLFAPNIYVLDYLNETQQLTPEIKSKAIGYLNTGYQRQLNYKHYDGSYSTFGERYGRNQGNTWLTAFVLKTFAQARAYIFIDEAHITQALIWLSQRQKDNGCFRSSGSLLNNAIKGGVEDEVTLSAYITIALLEIPLTVTHPVVRNALFCLESAWKTAQEGDHGSHVYTKALLAYAFALAGNQDKRKEVLKSLNEEAVKKDNSVHWERPQKPKAPVGHFYEPQAPSAEVEMTSYVLLAYLTAQPAPTSEDLTSATNIVKWITKQQNAQGGFSSTQDTVVALHALSKYGAATFTRTGKAAQVTIQSSGTFSSKFQVDNNNRLLLQQVSLPELPGEYSMKVTGEGCVYLQTSLKYNILPEKEEFPFALGVQTLPQTCDEPKAHTSFQISLSVSYTGSRSASNMAIVDVKMVSGFIPLKPTVKMLERSNHVSRTEVSSNHVLIYLDKVSNQTLSLFFTVLQDVPVRDLKPAIVKVYDYYETDEFAIAEYNAPCSKDLGNA
For the molecule B1, the binding entry is reported as “no binding”.
